The list shows a part of the results. Values are raw readings; no control value is given beside them.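 In the initial screen, polymyxin B was used at a concentration that permeabilizes Salmonella's outer membrane but not its inner membrane. Maximum growth was set by DMSO wells with or without polymyxin B. Since plates varied, data were ranked per plate, and compounds giving the lowest OD600 advanced as hits.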
Test system: Salmonella enterica serovar Typhimurium SL1344
Assay: bacterial growth OD600 after 18 h with compound and polymyxin B; higher = more bacterial growth (less inhibition)
Details: 50 µM, Mueller-Hinton broth

Row | Compound | bacterial growth OD600 (polymyxin B 0.75 µg/mL) | bacterial growth OD600 (polymyxin B 1 µg/mL)
1 | c1coc(CCNc2nc3nonc3nc2N2CCSCC2)c1 | 0.722 | 
2 | CC(C)C1=NOC(C(=O)N2CCc3[nH]nc(-c4ccc(F)c(F)c4)c3C2)C1 (configuration not stated) | 0.757 | 
3 | COc1cc(CN2CCOc3ccc(C(C)(O)COc4ccccc4)cc3C2)ccc1F (configuration not stated) | 0.014 | 
4 | COc1ccc(-c2nc(CN(C)Cc3cccc(C(F)(F)F)c3)c(C)o2)cc1 | 0.007 | 
5 | COc1cc(OC)nc(N2CCc3[nH]nc(-c4ccccc4)c3C2)n1 | 0.406 | 
6 | COc1cccc(OCC(O)CNC(=O)CCC2(Cc3ccc(F)c(OC)c3)CCC(=O)N2)c1 (configuration not stated) | 0.85 | 
7 | CCOC(=O)C1(Cc2ccc(F)cc2)CCCN(C(=O)C(C)C)C1 (configuration not stated) |  | 0.949
8 | COc1ccc(-n2ccnc2CN(C)C2CCCN(C3Cc4ccccc4C3)C2)cc1 (configuration not stated) |  | 0.77
9 | O=C(CCc1ccc2c(c1)OCO2)N1CCC2(CCCN(CC3CC3)C2=O)C1 (configuration not stated) |  | 1.04
10 | CN(CC1Cc2ccccc2O1)C(=O)CCn1nnnc1CN1CCOCC1 (configuration not stated) |  | 1.16
11 | O=C(CCC(=O)c1ccc(F)cc1)NC1CCCN(Cc2ccccc2F)C1 (configuration not stated) |  | 0.969
12 | COCCn1cnc2cc(NC(=O)C3CCCCC3)cc(C(=O)NCCSc3nncn3C)c21 | 0.976 | 
13 | O=C(CC1(c2cccc(C(F)(F)F)c2)CC(=O)N(C2CC2)C1=O)N1CCCCC1c1cccnc1 (configuration not stated) | 0.856 | 
14 | CN(CC1CCN(CCc2ccccc2F)CC1)C(=O)c1ccc2ncccc2c1 |  | 0.735
15 | CN(CC1CCCN(CCc2ccc(Cl)cc2)C1)C(=O)c1ccc(F)cc1 (configuration not stated) |  | 0.777
16 | O=C(CCc1cn[nH]c1)N1CCCC(CCc2ccccc2F)C1 (configuration not stated) |  | 0.885

Row | Compound | bacterial growth OD600 (polymyxin B 0.75 µg/mL) | bacterial growth OD600 (polymyxin B 1 µg/mL)
17 | COc1cccc(CN2CCCC(O)(CN3CCCCC3)C2=O)c1 (configuration not stated) |  | 0.754
18 | C=CCNC(=O)c1coc(COc2ccc(OC)cc2)n1 |  | 0.923
19 | O=C(CCC1CCN(Cc2ccoc2)CC1)Nc1ccccc1Cl |  | 0.767
20 | Cc1cnc(CNCC2(O)CCCN(Cc3cccc(F)c3F)C2=O)cn1 (configuration not stated) | 0.935 | 
21 | COc1ccc(NC(=O)N2CCCC(Nc3ccc(C)c(C)c3)C2)c(OC)c1 (configuration not stated) |  | 0.822
22 | O=C(Nc1cccc(-c2ccc(F)cc2)c1)C1CCCN(Cc2cccnc2)C1 (configuration not stated) |  | 0.008
23 | COCCN(Cc1nc(-c2ccc(OC)c(OC)c2OC)no1)C(C)C |  | 1.19
24 | COc1ccccc1C1CN(Cc2ccc(OCCO)cc2)Cc2ccccc2O1 (configuration not stated) | 0.005 | 
25 | COc1ccc(CC2(CCC(=O)NC(c3ccccn3)C(F)(F)F)CCC(=O)N2)c(F)c1 (configuration not stated) | 0.872 | 
26 | COc1cccc(CN(C)Cc2nc(-c3ccccc3C)oc2C)c1 | 0.01 | 
27 | O=C(/C=C/c1cccc(F)c1)N1CCC(C2(c3ccccn3)NC(=O)N(CC3CCCO3)C2=O)CC1 (configuration not stated) | 0.913 | 
28 | CC(C)c1ccc(NC2CCCN(C(=O)CCN3Cc4ccccc4C3=O)C2)cc1 (configuration not stated) |  | 0.576
29 | Cc1ccccc1CC(C1CCN(C(=O)c2ccc3ccccc3c2)CC1)N(C)C(=O)Cn1cccn1 (configuration not stated) | 0.812 | 
30 | O=C(CCC1(Cc2ccc3ccccc3c2)CCC(=O)N1)NCc1cnn(-c2ccc(F)cc2)c1 (configuration not stated) | 0.892 | 
31 | COc1ccccc1NC(=O)Nc1ccnn1C1CCN(C(=O)CCC2(C)CC2)CC1 | 0.729 | 
32 | CCOC(=O)C1(Cc2ccc(F)cc2)CCCN(C(=O)c2n[nH]c(=O)c3ccccc23)C1 (configuration not stated) |  | 1.09

Ordered by count of non-hydrogen atoms (smallest number first): three of the compounds above.
Row | Compound | bacterial growth OD600 (polymyxin B 0.75 µg/mL) | bacterial growth OD600 (polymyxin B 1 µg/mL)
19 | O=C(CCC1CCN(Cc2ccoc2)CC1)Nc1ccccc1Cl |  | 0.767
2 | CC(C)C1=NOC(C(=O)N2CCc3[nH]nc(-c4ccc(F)c(F)c4)c3C2)C1 (configuration not stated) | 0.757 | 
31 | COc1ccccc1NC(=O)Nc1ccnn1C1CCN(C(=O)CCC2(C)CC2)CC1 | 0.729 | 
